The values that follow come from PubChem BioAssay AID2685 (National Center for Advancing Translational Sciences (NCATS), 2010).

The other results are listed elsewhere or left out. These are further read-outs of the screen, such as a control signal, another cell line or another target. No call is given for them. Compounds called inactive in the main read-out are mostly missing here. Potencies come from curve fits of mixed quality, noted in brackets.

This test in a line: qHTS Assay for Lipid Storage Modulators in Drosophila S3 Cells.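 For cell number change: cells counted by Cell Tracker Red CMTPX staining in the red channel.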 The conditions noted are these: BODIPY lipid droplet fluorescence, 18-24 h; for cell number change: measured here: cell count max response, cells fed with added oleic acid. In outline:
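Laser-scanning cytometry quantifies lipid droplet accumulation (500–530 nm total intensity; droplet/cell object ratio) in oleic acid-fed (400 uM added) Drosophila S3 cells treated with a concentration series. 20 uM Triacsin C defined 100% inhibition.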

Where [1] appears, read: measured here: cell number channel AC50, cells fed with added oleic acid.
[2] abbreviates: measured here: lipid fluorescence (Fed channel) AC50, cells fed with added oleic acid.

`O=C(c1ccc(-n2c(SCc3cccc(F)c3)nc3ccccc3c2=O)cc1)N1CCOCC1`: the cell number change was 32.5%. Also, under setting [1], the AC50 is 5.17 µM [rising, partial curve]. For the same molecule, the AC50 under setting [2] is 16.4 µM [rising, partial curve, poor fit].

`C=CCN(C(=O)Cn1ncc2c1-c1cc(C)ccc1OC2)c1ccccc1`: the cell number change came to 24.6%. In addition, under setting [2], the half-maximal activity concentration (AC50) is 23.1 µM [rising, single point].

`O=C(c1ccc(S(=O)(=O)c2ccccc2Cl)c([N+](=O)[O-])c1)N1CCN(Cc2ccccc2)CC1`: the cell number change is -17.2%. For the same molecule, under setting [2], the AC50 was 29.1 µM [falling, single point].

On to `O=C(COc1ccccc1)Nc1cccc(S(=O)(=O)N2CCCC2)c1`, for which the cell number change is -5.53%. Moreover, the half-maximal activity concentration (AC50) under setting [1] is 6.51 µM [falling, single point].

As for `CCOC(OCC)c1cn(Cc2ccc3c(c2)C(=O)c2ccccc2C3=O)nn1`, the cell number change was -12.3%. Besides, under setting [2], the AC50 is 18.4 µM [falling, single point].

With `O=C(C[n+]1cccc(CO)c1)Nc1nc2ccccc2s1`, the cell number change is -26.1%. Moreover, the half-maximal activity concentration (AC50) under setting [2] is 18.4 µM [falling, single point].

For the molecule `CCOc1ccc(-n2c(=S)sc3c(=O)n(-c4ccccc4)c(SCC(=O)O)nc32)cc1`, the cell number change turned out to be 62%. Under setting [1], the AC50 was 5.8 µM [rising, full curve].

On to `Cc1ccc(CN2CCN(/N=C/c3cc(Br)ccc3O)CC2)cc1`, for which the cell number change was -11.3%. In addition, the AC50 under setting [1] is 0.058 µM [falling, full curve, poor fit].

For the molecule `O=C(NCc1cccc(Cl)c1)c1cnccn1`, the cell number change was -1.17%. In addition, the AC50 under setting [2] was 29.1 µM [falling, single point].

In the case of `O=C(CSc1nc2c(sc3ccccc32)c(=O)n1CCO)NCC1CCCO1` (configuration not stated), the cell number change stood at 5.87%.

On to `O=C(Nc1ccccc1N1CCCC1)C1CCN(S(=O)(=O)c2ccccc2C(F)(F)F)CC1`, for which the cell number change is -39.1%. The AC50 under setting [1] was 13 µM [falling, partial curve, poor fit]. Further, the concentration at half-maximal activity (AC50) under setting [2] was 29.1 µM [falling, single point].

Take `COC(=O)c1ccccc1S(=O)(=O)N(CCCO)Cc1cc2c(C)ccc(C)c2[nH]c1=O`: the AC50 by setting is: under setting [1], 0.58 µM [rising, full curve]; under setting [2], 0.58 µM [rising, full curve].

As for `CC1CCC(NC(=O)CCN2C(=O)C3C4C=CC(C4)C3C2=O)CC1` (configuration not stated), the cell number change worked out at 8.26%.

On to `CCC(C)(C)C1CCc2[nH]nc(C(=O)NCCNC(=O)OC(C)(C)C)c2C1` (configuration not stated), for which the cell number change is -0.132%. For the same molecule, the concentration at half-maximal activity (AC50) under setting [2] is 0.231 µM [falling, full curve, poor fit].

Consider `O=C(O)C1CSC2c3ccccc3C(=O)N12` (configuration not stated), for which the cell number change is -134%. The AC50 under setting [1] was 29.1 µM [falling, single point]. The AC50 under setting [2] is 29.1 µM [falling, partial curve].

As for `Cc1c(Cl)cccc1N1C(=O)C2ON(c3ccccc3)C(c3cccnc3)C2C1=O` (configuration not stated), the cell number change turned out to be 60.6%. In addition, the AC50 under setting [1] was 29.1 µM [rising, single point]. For the same molecule, under setting [2], the concentration at half-maximal activity (AC50) was 29.1 µM [rising, single point].

As to `CC1CCc2c(sc3nc(C(C)(C)C)nc(N4CCN(C(=O)CCl)CC4)c23)C1` (configuration not stated), the cell number change was -52.3%. Further, the concentration at half-maximal activity (AC50) under setting [1] is 20.6 µM [falling, partial curve]. In addition, under setting [2], the AC50 was 20.6 µM [falling, partial curve].

Consider `COc1ccc(CNCCC2(O)CC(C)N(C)CC2C)cc1OC` (configuration not stated), for which the cell number change worked out at 29.4%.

Take `COc1ccc(CCNS(=O)(=O)c2cc(C(=O)O)c(Cl)cc2Cl)cc1`: the cell number change came to 23.2%. Besides, the AC50 under setting [2] is 0.146 µM [rising, partial curve, poor fit].

With `COc1ccc2sc(N(CCCN(C)C)C(=O)c3ccc(S(=O)(=O)N(C)C4CCCCC4)cc3)nc2c1`, the cell number change stood at 12.6%. For the same molecule, under setting [2], the AC50 is 0.651 µM [falling, single point].

`COc1cccc(NC(=O)CN(Cc2ccccc2)S(C)(=O)=O)c1`: the cell number change worked out at 6.69%.

As to `CCCC(=Nc1ccc(N)cc1)C1=C(O)C(C(=O)OC)C(C)(C)CC1=O` (configuration not stated), the cell number change was found to be 22.4%. Besides, the concentration at half-maximal activity (AC50) under setting [1] is 1.64 µM [falling, partial curve]. Besides, under setting [2], the concentration at half-maximal activity (AC50) was 11.6 µM [falling, partial curve].

Regarding `Cc1cc(C)nc(NS(=O)(=O)c2ccc(-n3cccc3)cc2)n1`, the half-maximal activity concentration (AC50) under setting [2] is 1.3 µM [falling, partial curve].

Regarding `Cc1c(NC(=O)Nc2ccc3c(c2)OCO3)c(=O)n(-c2ccccc2)n1C`, the cell number change came to 21%. Also, under setting [2], the AC50 was 6.51 µM [falling, single point].

With `Cc1nnc(N/N=C/c2c(O)n(-c3cccc(C(F)(F)F)c3)c(=O)c3ccccc23)[nH]c1=O`, the cell number change was determined as 14.3%. The concentration at half-maximal activity (AC50) under setting [1] was 6.51 µM [falling, single point].

Turning to `COc1ccccc1NC(=O)CCC(=O)OCc1ccc([N+](=O)[O-])cc1`, the cell number change was -14.4%. Moreover, the concentration at half-maximal activity (AC50) under setting [2] was 0.731 µM [falling, full curve].

As to `Cc1ccc(NC(=O)CN2C(=O)C3C4C=CC(C4)C3C2=O)cc1` (configuration not stated), the cell number change came to 10.3%. Moreover, the AC50 under setting [1] was 0.00517 µM [falling, full curve, poor fit].

For the molecule `COc1ccc(N(CC(=O)Nc2ccccc2C(=O)N2CCCC2)S(C)(=O)=O)cc1`, the cell number change is 22.5%. Under setting [2], the half-maximal activity concentration (AC50) is 0.58 µM [rising, single point].

For `O=C(CCc1nc2sc3c(c2c(=O)[nH]1)CCCC3)NCCc1ccccc1`, the cell number change was found to be 0.534%. Besides, the AC50 under setting [2] was 0.116 µM [falling, full curve, poor fit].

In the case of `CCCC(C)C(=O)NCc1ccncc1` (configuration not stated), the cell number change was -13.7%.

For the molecule `CCOc1ccc(-c2[nH]ncc2Oc2cccc(OC)c2)c(O)c1`, the cell number change is -72.3%. Also, under setting [1], the AC50 is 23.1 µM [falling, single point]. Moreover, the half-maximal activity concentration (AC50) under setting [2] was 3.66 µM [falling, full curve].

Take `COC(=O)c1cccnc1-n1c(=O)c2cccnc2n(Cc2ccc([N+](=O)[O-])cc2)c1=O`: the cell number change is -0.913%. The AC50 under setting [1] was 0.00461 µM [falling, full curve, poor fit]. Besides, the AC50 under setting [2] is 0.00461 µM [falling, full curve, poor fit].

For the molecule `C#CCOC(=O)/C(=C/C=C/c1ccccc1)NC(=O)c1ccccc1`, the AC50 under setting [2] was 0.146 µM [rising, full curve, poor fit].

For `COC(=O)C(NC(C)=O)(Nc1sc2c(c1C(N)=O)CCCC2)C(F)(F)F` (configuration not stated), the cell number change was found to be 35.6%. Besides, the AC50 under setting [1] was 29.1 µM [rising, single point]. Also, the concentration at half-maximal activity (AC50) under setting [2] was 0.58 µM [rising, single point].

Regarding `CNC(=O)NC(=O)C(OC(=O)Cc1cccc(C(F)(F)F)c1)c1ccccc1` (configuration not stated), the cell number change is 2.94%. Besides, the concentration at half-maximal activity (AC50) under setting [2] was 29.1 µM [rising, single point].
